Data as given in PubChem BioAssay AID652272 (Drosophila RNAi Screening Center, 2013)
The screen tested about 21,000 reagents; below is an unselected part of those with a known target gene and a result. In the full data, 503 (2.4%) are marked active. 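Raw plate light values, not normalised; calls rest on replicate z-scores that were not deposited; hits include reporter decreases as well as increases.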 Unmarked entries are inactive. The numbers tell different reagents against one gene apart. The record does not give: the amount of reagent, the time to read-out.

- Assay: 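Finding fly genes that regulate Hedgehog signal transduction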 (primary screen)
- Cells: Drosophila clone 8 (Cl8) cells
- Reagent: long dsRNA against Drosophila genes
- Measured: 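Plate reader light from a firefly reporter under a ptc promoter fragment that responds to Hedgehog, with Renilla light as transfection reference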
- Scale: firefly Hh reporter signal: higher = more ptc reporter light; Renilla reference signal: higher = more Renilla control light
- Rule for the call: 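Called a hit if the two-replicate mean z-score lies below -2 or above +3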
- Calls: active = hit: reporter lowered or raised; inactive = not a hit

no.	predicted target	reagent no.	firefly Hh reporter signal, replicate 1	firefly Hh reporter signal, replicate 2	firefly Hh reporter signal, replicate 3	Renilla reference signal, replicate 1	Renilla reference signal, replicate 2
1	CG3556	1	1.35e5	1.42e5		2144	4211
2	sNPF-R	1	92246	1.31e5		3285	3645
3	Hs2st	1	60705	59505		3236	2612
4	Gr28b	1	1.05e5	57933		2775	5653
5	Gr28b	2	83011	41344		2144	4691
6	H2.0	1	1.89e5	4.97e5	1.20e5	4724	26979
7	BBS5	1	72624	1.32e5		2364	3498
8	Pus10	1	1.03e5	63104		4117	2436
9	CG8569	1	62567	47665		3139	1991
10	CG15343	1	1.01e5	4.00e5		2774	13632
11	IscU	1	60663	73411		2192	2226
12	CG1486	1	1.16e5	1.06e5		2914	2928
13	Sdb	1	1.15e5	51305		2710	2629
14	Sdb	2	1.55e5	59940		3922	2711
15	Sdb	3	1.27e5	66502		4829	2876
16	CG3860	1	97868	77348		3767	2811
17	Spn42Dc	1	88048	40747		2123	3544
18	CG15546	1	1.38e5	1.88e5		4021	8823
19	CG32054	1	34954	27872	50708	3048	3600
20	CG11920	1	89120	56188		3889	2267
21	Ugt35A1	1	98704	68805		3924	2652
22	Gp210	1	88192	1.05e5		1435	6896
23	Gp210	2	1.58e5	1.23e5		6408	4569

Ordered by “Renilla reference signal, replicate 1” (ascending): some entries from above
predicted target	reagent no.	firefly Hh reporter signal, replicate 1	firefly Hh reporter signal, replicate 2	firefly Hh reporter signal, replicate 3	Renilla reference signal, replicate 1	Renilla reference signal, replicate 2
Spn42Dc	1	88048	40747		2123	3544
CG3860	1	97868	77348		3767	2811
Sdb	2	1.55e5	59940		3922	2711
Sdb	3	1.27e5	66502		4829	2876
